From patent US12378320B2, “Methods for treating pancreatitis” (Cold Spring Harbor Laboratory, priority 2018, dated 2025)

B1: P52196 (protein, UniProt P52196 1-297, looked up)
chain: MVHQVLYRALVSTKWLAESIRSGRLGPSLRVLDASWYSPGTRQARKEYQERHVPGASFFDIEECRDTTSPYEMMLPSEAHFGDYVGNLGISNDTHVVVYDGDDLGSFYAPRVWWMFRVFGHRTVSVLNGGFRNWLKEGHPVTSEPSRPEPAVFKATLNLSLLKTYEQVLENLQSKRFQLVDSRAQGRYLGTQPEPDIVGLDSGHIRGSVNMPFMDFLTKDGFEKSPEELRAIFQDKKVDLSQPLIATCRKGVTACHVALAAYLCGKPDVAVYDGSWSEWFRRAPPETRVSQGKSGKA
modifications: full-length
B2: Q922U2 (protein, UniProt Q922U2 1-580, looked up)
chain: MSRQSSVSFRSGGSRSFSAASAITPSVSRTSFSSVSRSGGGGGGRISLGGACGAGGYGSRSLYNVGGSKRISYSSGGGSFRNQFGAGGFGFGGGAGSGFGFGGGAGSGFGFGGGAGFGGGYGGAGFPVCPPGGIQEVTVNQNLLTPLNLQIDPTIQRVRTEEREQIKTLNNKFASFIDKVRFLEQQNKVLDTKWALLQEQGTKTIKQNLDPLFEQYINNLRRQLDGVLGERGRLDSELRNMQDLVEDYKNKYEDEINKRTTAENEFVMLKKDVDAAYMNKVELEARVDALMDEINFMKMFFDAELSQMQTHVSDTSVVLSMDNNRSLDLDSIIAEVKAQYEDIANRSRTEAESWYQTKYEELQQTAGRHGDDLRNTKHEISEMNRMIQRLRSEIDNVKKQCANLQNAIAEAEQRGELALKDARNKLTELEEALQKAKQDMARLLREYQELMNTKLALDVEIATYRKLLEGEECRLSGEGVGPVNISVVTNSVSSGYGGGSSIGVGSGFGGGLGSGFAGGLGPRFTRGGGGLGLGSGLSVGGSGFSAGSSQGGMSFGSGGGSGSSVKFVSTTSSSRRSFKS
modifications: full-length
B3: Q9ERK4 (protein, UniProt Q9ERK4 1-971, looked up)
chain: MELSDANLQTLTEYLKKTLDPDPAIRRPAEKFLESVEGNQNYPLLLLTLLEKSQDNVIKVCASVTFKNYIKRNWRIVEDEPNKICEADRVAIKANIVHLMLSSPEQIQKQLSDAISIIGREDFPQKWPDLLTEMVNRFQSGDFHVINGVLRTAHSLFKRYRHEFKSNELWTEIKLVLDAFALPLTNLFKATIELCSTHANDASALRILFSSLILISKLFYSLNFQDLPEFFEDNMETWMNNFHTLLTLDNKLLQTDDEEEAGLLELLKSQICDNAALYAQKYDEEFQRYLPRFVTAIWNLLVTTGREVKYDLLVSNAIQFLASVCERPHYKNLFEDQNTLTSICEKVIVPNMEFRAADEEAFEDNSEEYIRRDLEGSDIDTRRRAACDLVRGLCKFFEGPVTGIFSGYVNSMLQEYAKNPSVNWKHKDAAIYLVTSLASKAQTQKHGITQANELVNLTEFFVNHILPDLKSNNVNEFPVLKADGIKYIMIFRNQVPKEHLLVSIPLLISHLEAESIVVHTYAAHALERLFTMRGSNNTTLFTAAEIAPFVEILLTNLFKALTLPGSSENEYIMKAIMRSFSLLQEAIIPYIPTLITQLTQKLLAVSKNPSKPHFNHYMFEAICLSIRITCKANPAAVVNFEEALFLVFTEILQNDVQEFIPYVFQVMSLLLETHKNDIPSSYMALFPHLLQPVLWERTGNIPALVRLLQAFLERGSSTIATAAADKIPGLLGVFQKLIASKANDHQGFYLLNSIIEHMPPESVDQYRKQIFILLFQRLQNSKTTKFIKSFLVFINLYCIKYGALALQEIFDGIQPKMFGMVLEKIIIPEIQKVSGNVEKKICAVGITKLLTECPPMMDTEYTKLWTPLLQSLIGLFELPEDDSIPDEEHFIDIEDTPGYQTAFSQLAFAGKKEHDPVGQMVNNPKIHLAQSLHKLSTACPGRVPSMVSTSLNAEALQYLQGYLQAASVTLL
modifications: full-length
B4: P28665 (protein, UniProt P28665 1-1476, looked up)
chain: MWKSRRAQLCLFSVLLAFLHSASLLNGDSKYMVLVPSQLYTETPEKICLHLYQLNETVTVTASLVSQSGRKNLFDELVLDKDLFQCVSFIIPRLSSSDEEDFLYVDIKGPTHEFSKRKAVLVKNKESVVFVQTDKPVYKPGQSVKFRVVSMDKMLRPLNELLPLAYIEDPKKNRIMQWRDIKTENGLKQMSFSLAAEPIQGPYKIVVHKESGEKEEHSFTVMEFVLPRFNVDLKVPNAMSVNDEVLSVTACGKYTYGKPVPGHVKINVCRETETGCREVNSQLDNNGCSTQEVNITELQSKKRNYEVQLFHVNATVTEEGTGLEFSRSGTTKIERITNKLIFLKADSHFRHGIPFFVKVRLVDIKGDPIPNEKVFIKAQELSYTSATTTDQHGLAEFSIDTTCISGSSLHIKVNHKEEDSCSYFYCMEERHASAKHVAYAVYSLSKSYIYLDTETSSILPCNQIHTVQAHFILKGDLGVLKELIFYYLVMAQGSIIQTGNHTHQVEPGEAPVKGKFALEIPVEFSMVPMAKMLIYTILPDGEVIADSVNFEIEKCLRNKVDLRFSTSQSLPASQTRLQVTASPQSLCGLRAVDQSVLLLKPESELSPSWIYNLPGMQQNKFVPSSRLSEDQEDCILYSSWLAEKHTNLVPHGTEKDVYRYVEDMGLTAFTNLMIKLPIICFDYGMVPISAPRVEFDLAFTPEISWSLRTTLSKRPEEPPRKDPSSNDPLTETIRKYFPETWVWDIVTVNSTGLAEVEMTVPDTITEWKAGALCLSNDTGLGLSSVVPLQAFKPFFVEVSLPYSVVRGEAFMLKATVMNYLPTSMQMSVQLEASPDFTAVPVGDDQDSYCLSANGRHTSSWLVTPKSLGNVNFSVSAEAQQSSEPCGSEVATVPETGRKDTVVKVLIVEPEGIKQEHTFSSLFCASDAEISEKMSLVLPPTVVKDSARAHFSVMGDILSSAIRNTQNLLHMPYGCGEQNMVLFAPNIYVLKYLNETQQLTQKIKTKALGFLRAGYQRELNYKHKDGSYSAFGDQNGEREGNTWLTAFVLKSFAQARAFIFIDESHITHAFTWLSQKQKDNGCFRSSGSLFNNAMKGGVDDEMTLSAYITMALLESSLPATHPVVSKALSCLESSWKTIEQERNASFVYTKALMAYAFALAGNQNKRDEILKSLDEEAIKENNSIHWKRPQKSRKSEHHLYKPQASSAEVEMNAYVVLARLTAQPAPSPEDLTLSMSTIMWLTKQQNSNGGFSSTQDTVVALDALSKYGAVTFSRSQKTTLVTIQSTGSFSQKFQVENSNRLLLQQVALPDIPGDYTISVSGEGCVYAQTMLRYNMHLEKQLSAFAIWVQTVPLTCNNPKGHNSFQISLEISYTGSRPASNMVIADVKMLSGFIPLKPTVKKLERLEHVSRTEVSNNNVLIYLDQVTNQTLAFSFIIQQDIPVRNLQPAIVKVYDYYETDEMAFAEYSSPCSTDKQNV
modifications: full-length

Test system: CA19-9 modified proteins
Experiment: CA19-9 IP/MS (iTRAQ) of organoid conditioned media after Dox treatment
Parameters: species or system mouse
[1] = A217 (genetic negative) organoids conditioned media, after 8 hours of treatment, CA19-9 IP with 5B1, relative to 17 0H NS19
[2] = A217 (genetic negative) organoids conditioned media, after 8 hours of treatment, CA19-9 IP with NS19-9, relative to 17 0H NS19
[3] = A217 (genetic negative) organoids conditioned media, before treatment (0H), CA19-9 IP with NS19-9, relative abundance, reference channel
[4] = A220 (C;R^LSL;F) organoids conditioned media, before treatment (0H), CA19-9 IP with 5B1, relative to 17 0H NS19

Row | Molecule | 17 8H 5B1 [1] | 17 8H NS19 [2] | 17 0H NS19 [3] | 20 0H 5B1 [4] | 17 0H NS19 (CA19-9 IP/MS relative abundance, A217 (genetic negative) organoid conditioned media, 0H (before treatment), IP with NS19-9, reference channel = 1) | 17 8H 5B1 (CA19-9 IP/MS relative abundance, A217 (genetic negative) organoid conditioned media, after 8 hours, IP with 5B1) | 17 8H NS19 (CA19-9 IP/MS relative abundance, A217 (genetic negative) organoid conditioned media, after 8 hours, IP with NS19-9) | 20 0H 5B1 (CA19-9 IP/MS relative abundance, A220 (C;R^LSL;F) organoid conditioned media, 0H (before treatment), IP with 5B1)
1 | B1 | 4.508 | 0.484 | 1 | 3.105 |  |  |  | 
2 | B2 |  |  |  |  | 1 | 0.816 | 1.206 | 1.016
3 | B3 | 8.429 | 0.669 | 1 | 5.471 |  |  |  | 
4 | B4 | 0.583 | 0.906 | 1 | 0.447 |  |  |  | 
